Data reported in the supplement of paper PMC8007513.
Some of the results follow. Single values are uncertain, as repeats are few or missing.

What follows are compounds tested on Saccharomyces cerevisiae BY4743 (assay: growth (OD600) relative to untreated control; higher = less growth inhibition). Conditions: compound concentration: 133 uM; 20 h.
Method: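 NMCCC compounds (133 uM, no IPBC) tested alone against Saccharomyces cerevisiae BY4743 in YPD, 96-well plates, starting OD600 ~0.1. Growth was read as OD600 at 20 h and expressed as % of the untreated control. Single pass.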
In the case of `CCOC(=O)C1CCN(C(=O)c2cc(-c3cccnc3)on2)CC1`, the growth is reported as 95.4%.
For `Cc1cc(SCC(=O)OC(C)C(=O)c2ccc(NS(C)(=O)=O)cc2)nc2ccccc12` (stereo not drawn), the growth was 108%.
For `NC(=O)c1cc(Cl)ccc1OCC(=O)Nc1ccc(N2CCCCC2)cc1`, the growth was 91.7%.
`Nc1cc(N)nc(SC(C(=O)N2CCOCC2)c2ccccc2)n1` (stereo not drawn) was tested, and the growth was 104%.
`CCN1CCN(S(=O)(=O)c2ccc3c(c2)NC(=O)C(C)CS3)CC1` (stereo not drawn) was tested, and the growth was 90.7%.
Compound `Cc1cc(F)ccc1-n1nnc(C(=O)OCc2ccc(F)cc2)c1C` has a growth of 76.2%.
With `COC(=O)c1sccc1NS(=O)(=O)c1ccc(Cl)s1` the growth was 99.9%.
In the case of `Cc1cc(CS(=O)(=O)C(C)C(=O)Nc2ccc(Cl)cc2)on1` (stereo not drawn), the growth is reported as 115%.
`CCOc1ccc(CNC(=O)C(C)n2nc(C)c3ccccc32)cc1OC` (stereo not drawn) showed a growth of 102%.
For `CCSc1nnc2c(=O)[nH]c(=O)[nH]c2n1`, the growth was 92.6%.
For `COc1ccc(CNC(=O)COC(=O)Cc2c(C)nn(C)c2C)cc1`, the growth was 101%.
For `COC(=O)c1ccn(CC(=O)Nc2ccc(C)cc2C)n1`, the growth was 106%.
In the case of `COCCN(Cc1cccs1)S(=O)(=O)c1ccc(-c2cc(C(F)(F)F)on2)s1`, the growth is reported as 84.7%.
`CCC(Sc1nc(O)c2c(n1)CCC2)C(=O)NC1CCCCC1` (stereo not drawn) was tested, and the growth was 93%.
With `CC(=O)c1c(C)[nH]c(C(=O)N2CCN(Cc3ccc(C#N)cc3)CC2)c1C` the growth was 100%.
Work on `CSc1nsc(NC(=O)CN(C)Cc2ccc(Cl)s2)n1` yielded a growth of 109%.
`CCN(CC)S(=O)(=O)c1cccc(C(=O)N[C@H](C(=O)Nc2ccc3c(c2)OCCO3)C(C)C)c1` was tested, and the growth was 107%.
With `Cc1cnc(NC(=O)CN2CSCC2=O)s1` the growth was 91.7%.
With `CCCn1c(SCC(=O)Nc2ccc(CC#N)cc2)nnc1-c1ccncc1` the growth was 104%.
With `CCCOc1ccc(CN(C(=O)c2nc(SC)ncc2Cl)C2CCS(=O)(=O)C2)cc1` (stereo not drawn) the growth was 101%.
With `Oc1cc(C(F)(F)F)c2c(-c3ccccc3)noc2n1` the growth was 100%.
In the case of `CCN(CC)c1nc2sc(C(=O)OCc3nccs3)cc2s1`, the growth is reported as 71.6%.
Work on `O=C(CSc1ccc2c(c1)OCCCO2)NC1CCS(=O)(=O)C1` (stereo not drawn) yielded a growth of 104%.
